Experimental data published in publication PMC12343871.
No constants are given. Whether binding was seen depends on the method and setting. Binding seen in cells or lysates may run through a third protein. A yes stands for co-enrichment or nearness to the bait. Other partners may have been found.

Chains of the proteins cited; added tags and fusions are not shown.
UniProt Q14258: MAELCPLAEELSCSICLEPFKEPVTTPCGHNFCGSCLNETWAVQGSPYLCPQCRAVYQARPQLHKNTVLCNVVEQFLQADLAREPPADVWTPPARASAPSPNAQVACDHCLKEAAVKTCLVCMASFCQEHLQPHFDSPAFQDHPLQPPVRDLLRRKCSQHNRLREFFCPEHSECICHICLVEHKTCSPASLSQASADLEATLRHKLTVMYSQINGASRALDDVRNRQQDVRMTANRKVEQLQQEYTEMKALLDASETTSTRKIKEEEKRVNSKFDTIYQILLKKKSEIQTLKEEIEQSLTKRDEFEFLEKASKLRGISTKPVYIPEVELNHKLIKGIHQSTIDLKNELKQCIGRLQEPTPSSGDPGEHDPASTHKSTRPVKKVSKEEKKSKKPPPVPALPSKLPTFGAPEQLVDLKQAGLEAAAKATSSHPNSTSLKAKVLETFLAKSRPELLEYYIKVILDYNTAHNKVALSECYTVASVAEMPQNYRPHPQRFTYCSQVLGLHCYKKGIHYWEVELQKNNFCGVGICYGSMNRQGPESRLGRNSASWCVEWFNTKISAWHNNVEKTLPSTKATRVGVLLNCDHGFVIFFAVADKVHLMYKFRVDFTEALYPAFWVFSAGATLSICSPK

Target: T1, Hexokinase 2 (HK2) (human (endogenous in gastric cancer cells)) (UniProt P52789)
T1 sequence: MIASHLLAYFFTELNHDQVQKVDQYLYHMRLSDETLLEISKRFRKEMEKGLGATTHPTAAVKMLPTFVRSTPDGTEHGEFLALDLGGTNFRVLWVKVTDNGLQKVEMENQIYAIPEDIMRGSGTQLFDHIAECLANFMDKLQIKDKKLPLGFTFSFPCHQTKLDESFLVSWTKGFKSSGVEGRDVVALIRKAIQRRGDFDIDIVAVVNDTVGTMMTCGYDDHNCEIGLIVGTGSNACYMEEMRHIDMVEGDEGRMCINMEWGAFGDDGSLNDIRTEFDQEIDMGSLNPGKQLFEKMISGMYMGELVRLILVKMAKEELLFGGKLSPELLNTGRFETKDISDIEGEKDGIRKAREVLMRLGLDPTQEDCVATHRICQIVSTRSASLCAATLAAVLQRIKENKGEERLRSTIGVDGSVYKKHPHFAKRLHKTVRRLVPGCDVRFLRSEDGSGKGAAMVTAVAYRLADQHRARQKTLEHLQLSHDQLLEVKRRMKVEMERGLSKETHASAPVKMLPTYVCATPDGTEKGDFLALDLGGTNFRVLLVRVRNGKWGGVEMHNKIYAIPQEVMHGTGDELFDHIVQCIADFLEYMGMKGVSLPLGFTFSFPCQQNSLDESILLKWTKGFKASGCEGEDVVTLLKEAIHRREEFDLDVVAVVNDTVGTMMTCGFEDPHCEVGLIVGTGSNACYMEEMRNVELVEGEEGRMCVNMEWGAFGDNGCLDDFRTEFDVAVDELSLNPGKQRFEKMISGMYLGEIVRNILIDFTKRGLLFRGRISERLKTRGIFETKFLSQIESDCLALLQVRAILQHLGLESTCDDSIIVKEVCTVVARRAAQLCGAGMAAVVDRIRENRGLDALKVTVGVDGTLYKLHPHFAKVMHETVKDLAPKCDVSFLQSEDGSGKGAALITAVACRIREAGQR
Assay: affinity purification with mass spectrometry; IP-MS screening for proteins interacting with HK2; sample and conditions not told

binding: binds
Substance: Tripartite motif 25 (TRIM25) (from UniProt Q14258 1-630)
